{"source": "patent US12731806B2", "about": "“Electrolyte regeneration for organic redox flow batteries based on water-soluble phenazine-based compounds” (CMBLU Energy AG, priority 2020, dated 2026)", "key": {"[1]": {"assay": "Ferrocyanide treatment in solution with regeneration reagents (reducing agents)"}, "[2]": {"assay": "Cycling in a redox flow cell (OCV, electrochemical activity)", "conditions": "RFB cell; DHPS solution containing approx. 15-20% of MHPS and DHP"}, "[3]": {"conditions": "125 mM reagent, room temperature, 2 h, start 347 mM hexacyanoferrate (II), 257 mM hexacyanoferrate (III), SOC 43%"}}, "data": [{"compound": "O=S([O-])[O-].[K+].[K+]", "note": "[Potassium sulfite]", "values": [{"measurement": "hexacyanoferrate concentration c(Fe(CN)6^2)", "setting": "[1]; [3]", "value": 587, "unit": "mM"}]}, {"compound": "O=S([O-])S(=O)[O-].[Na+].[Na+]", "note": "[Sodium dithionite]", "values": [{"measurement": "hexacyanoferrate concentration c(Fe(CN)6^2)", "setting": "[1]; 50 mM reagent, room temperature, 2 h, start SOC 43%", "value": 594, "unit": "mM"}]}, {"compound": "Monohydroxyphenazinesulfonic acid [MHPS]", "values": [{"measurement": "electrochemical activity", "setting": "[2]", "value": "electrochemically active"}]}, {"compound": "O=C[O-].[Na+]", "note": "[Sodium formate]", "values": [{"measurement": "hexacyanoferrate concentration c(Fe(CN)6^2)", "setting": "[1]; 125 mM reagent, 40° C., 43 h, start SOC 43%", "value": 538, "unit": "mM"}]}, {"compound": "O=C1O[C@H]([C@@H](O)CO)C(O)=C1O", "note": "[Ascorbic acid]", "values": [{"measurement": "hexacyanoferrate concentration c(Fe(CN)6^2)", "setting": "[1]; 300 mM reagent (as 0.5M solution in 1M KOH/NaOH), room temperature, 3 h, start SOC 43%", "value": 415, "unit": "mM"}]}, {"compound": "O=S([O-])[O-].[Na+].[Na+]", "note": "[Sodium sulfite]", "values": [{"measurement": "hexacyanoferrate concentration c(Fe(CN)6^2)", "setting": "[1]; [3]", "value": 591, "unit": "mM"}]}]}
